In US20110112012A1 (UNIVERSITY OF GEORGIA STUDIES RESEARCH FOUNDATION, published 2011):
No constants are given. Whether binding was seen depends on the method and setting. Some binding calls cover weakened binding; strength is not graded here.

Legend:
[1] = molecular target: AgCad1, Anopheles gambiae cadherin, full length, expressed in Drosophila S2 cells from pIZT-AgCad1 with C-terminal V5 epitope tag (Anopheles gambiae); test: dot blot with ^125I-Cry4Ba
[2] = molecular target: T1, CR11-MPED peptide of AgCad1 (amino acids 1358G to 1569A), expressed in E. coli (Anopheles gambiae); test: dot blot with ^125I-Cry4Ba
T1 sequence: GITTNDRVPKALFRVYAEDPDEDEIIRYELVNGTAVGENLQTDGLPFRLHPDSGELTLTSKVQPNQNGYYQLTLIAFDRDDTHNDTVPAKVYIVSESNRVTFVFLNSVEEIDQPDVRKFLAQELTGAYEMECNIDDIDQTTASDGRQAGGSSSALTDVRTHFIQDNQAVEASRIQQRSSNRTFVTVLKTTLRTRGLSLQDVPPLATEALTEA

[3] = molecular target: AgCad1 of Anopheles gambiae larval brush border membrane vesicles (200 kDa protein) (Anopheles gambiae); test: ligand blot of BBMV proteins, detected with anti-Cry4Ba serum
[4] = molecular target: TM-Cyto peptide of AgCad1 (amino acids 1570D to 1735F), expressed in E. coli (Anopheles gambiae); test: dot blot with ^125I-Cry4Ba; 1000-fold unlabeled Cry4Ba had no effect on the binding
[5] = molecular target: AgCad1, Anopheles gambiae cadherin, full length, expressed in Drosophila S2 cells from pIZT-AgCad1 with C-terminal V5 epitope tag (Anopheles gambiae); test: dot blot of partially purified AgCad1 from S2 cells, non-denaturing, autoradiography
[6] = molecular target: T1, CR11-MPED peptide of AgCad1 (amino acids 1358G to 1569A), expressed in E. coli (Anopheles gambiae); test: dot blot with ^125I-Cry4Ba; 1000-fold unlabeled Cry4Ba partially reduced the binding
[7] = molecular target: AgCad1, Anopheles gambiae cadherin, full length, expressed in Drosophila S2 cells from pIZT-AgCad1 with C-terminal V5 epitope tag (Anopheles gambiae); test: bead extraction (Cry4Ba on anti-Cry4Ba/Protein A beads) from CHAPS-solubilized S2 cells, anti-V5 blot

Measured: binding

B1: Cry4Ba toxin (Cry4BRA mutant, R203 replaced by A) of Bacillus thuringiensis israelensis (protein)
chain: VAGAILKFVNPPAGTVLTVLSAVLPILWPTNTPTPERVWNDFMTNTGNLIDQTVTAYVRTDANAKMTVVKDYLDQYTTKFNTWKREPNNQSYRTAVITQFNLTSAKLRETAVYFSNLVGYELLLLPIYAQVANFNLLLIRDGLINAQEWSLAASAGDQLYNTMVQYTKEYIAHSITWYNKGLDVLRNKSNGQWITFNDYKREMTIQVLDILALFASYDPRRYPADKIDNTKLSKTEFTREIYTALVESPSSKSIAALEAALTRDVHLFTWLKRVDFWTNTIYQDLRFLSANKIGFSYTNSSAMQESGIYGSSGFGSNLTHQIQLNSNVYKTSITDTSSPSNRVTKMDFYKIDGTLASYNSNITPTPEGLRTTFFGFSTNENTPNQPTVNDYTHILSYIKTDVIDYNSNRVSFAWTHKIVDPNNQIYTDAITQVPAVKSNFLNATAKVIKGPGHTGGDLVALTSNGTLSGRMEIQCKTSIFNDPTRSYGLRIRYAANSPIVLNVSYVLQGVSRGTTISTESTFSRPNNIIPTDLKYEEFRYKDPFDAIVPMRLSSNQLITIAIQPLNMTSNNQVIIDRIEIIPITQSVLDET
binds: [1] | [2] | [3] | [4] | [5] | [6] | [7]
